Measurements reported in PubChem BioAssay AID1259264 (Sanger Institute, 2017)

- Test: 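Kinases needed for CL40 growth and those that boost anti-cancer drug killing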 (primary screen)
- Cells: CL40 human colorectal cancer cells
- Knock-down reagent: siRNA pool against human genes
- Treatment: DMSO, or an anchor drug: BYL719 at 1 µM, cetuximab at 5 µg/ml, or trametinib at 10 nM
- Read-out: 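Viability as a fraction of non-targeting pool control (replicates averaged), control-based robust z-score, plus averaged synergy for each drug: BYL719 1 µM, cetuximab 5 µg/ml, trametinib 10 nM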
- Scale: robust z-score, siRNA alone and viability, siRNA alone: higher = more viable cells
- Units: viability, siRNA alone in fraction of control
- Call rule: 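Essential call: siRNA with no drug reaches a robust z under -3 (low cell count); drug synergy scores do not affect it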
- Meaning of the calls: active = essential (lowers viability alone); inactive = not essential
The whole screen tested 794 reagents; below is a random part of them. 15 of them (1.9%) were called active. 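Calls rest on knock-down alone at z-score below -3; synergy scores with the three drugs do not decide them.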 Viability is capped at 1. Not all columns of the deposit are shown. Not stated in the record: the amount of reagent, the time to read-out.

ACVR2B (activin A receptor type 2B) scored robust z-score, siRNA alone 0.0174; viability, siRNA alone 0.963; inactive. Depletion of CDK5R1 (cyclin dependent kinase 5 regulatory subunit 1) gave: robust z-score, siRNA alone 0.257; viability, siRNA alone 0.98; inactive. With knock-down of MOK (MOK protein kinase) the results were robust z-score, siRNA alone 0.539; viability, siRNA alone 1; inactive. SMC1A (structural maintenance of chromosomes 1A) gave robust z-score, siRNA alone 0.539; viability, siRNA alone 1; inactive. With knock-down of PRKCZ (protein kinase C zeta) the results were robust z-score, siRNA alone 0.0332; viability, siRNA alone 0.964; inactive. CAMK2G (calcium/calmodulin dependent protein kinase II gamma) scored robust z-score, siRNA alone 0.539; viability, siRNA alone 1; inactive.

For AURKA (aurora kinase A), the values are robust z-score, siRNA alone -4.92; viability, siRNA alone 0.609; active. HUNK (hormonally up-regulated Neu-associated kinase) scored robust z-score, siRNA alone -0.904; viability, siRNA alone 0.897; inactive. With knock-down of GRK1 (G protein-coupled receptor kinase 1), the record shows robust z-score, siRNA alone 0.539; viability, siRNA alone 1; inactive. SMAD2 (SMAD family member 2) scored robust z-score, siRNA alone -0.261; viability, siRNA alone 0.943; inactive. For CDK5 (cyclin dependent kinase 5), the values are robust z-score, siRNA alone 0.539; viability, siRNA alone 1; inactive. TEX14 (testis expressed 14, intercellular bridge forming factor) gave robust z-score, siRNA alone 0.539; viability, siRNA alone 1; inactive.

Against PAK2 (p21 (RAC1) activated kinase 2), the values are robust z-score, siRNA alone -0.314; viability, siRNA alone 0.939; inactive. For FLT4 (fms related receptor tyrosine kinase 4) the deposit lists robust z-score, siRNA alone 0.539; viability, siRNA alone 1; inactive. JAK2 (Janus kinase 2) scored robust z-score, siRNA alone 0.539; viability, siRNA alone 1; inactive. Against NME6 (NME/NM23 nucleoside diphosphate kinase 6), the values are robust z-score, siRNA alone -1.08; viability, siRNA alone 0.884; inactive. EPHA1 (EPH receptor A1) showed robust z-score, siRNA alone -1.56; viability, siRNA alone 0.85; inactive. Against IPPK (inositol-pentakisphosphate 2-kinase) the deposit lists robust z-score, siRNA alone 0.539; viability, siRNA alone 1; inactive.

Against SGK3 (serum/glucocorticoid regulated kinase family member 3) the deposit lists robust z-score, siRNA alone 0.539; viability, siRNA alone 1; inactive. With knock-down of DDR2 (discoidin domain receptor tyrosine kinase 2), the screen gave robust z-score, siRNA alone -0.254; viability, siRNA alone 0.943; inactive. For GRK5 (G protein-coupled receptor kinase 5), the values are robust z-score, siRNA alone 0.492; viability, siRNA alone 0.997; inactive. After knock-down of GNE the results were robust z-score, siRNA alone 0.539; viability, siRNA alone 1; inactive. After knock-down of EPHA3 (EPH receptor A3), the screen gave robust z-score, siRNA alone -0.577; viability, siRNA alone 0.92; inactive. Knock-down of MAPKAPK2 (MAPK activated protein kinase 2) came out at: robust z-score, siRNA alone 0.286; viability, siRNA alone 0.982; inactive.

Knock-down of PFKL (phosphofructokinase, liver type) resulted in: robust z-score, siRNA alone -0.0937; viability, siRNA alone 0.955; inactive. Depletion of NRBP2 (nuclear receptor binding protein 2) came out at: robust z-score, siRNA alone -0.772; viability, siRNA alone 0.906; inactive. Depletion of KALRN (kalirin RhoGEF kinase) resulted in: robust z-score, siRNA alone 0.539; viability, siRNA alone 1; inactive. Silencing of TGFBR2 (transforming growth factor beta receptor 2) came out at: robust z-score, siRNA alone 0.539; viability, siRNA alone 1; inactive.

Targets listed so far whose target name starts with P or p (3):
PRKCZ (protein kinase C zeta): robust z-score, siRNA alone = 0.0332; viability, siRNA alone = 0.964; outcome = inactive
PAK2 (p21 (RAC1) activated kinase 2): robust z-score, siRNA alone = -0.314; viability, siRNA alone = 0.939; outcome = inactive
PFKL (phosphofructokinase, liver type): robust z-score, siRNA alone = -0.0937; viability, siRNA alone = 0.955; outcome = inactive
